Measurements published in PubChem BioAssay AID1671190 (National Center for Advancing Translational Sciences (NCATS), 2021).
Screen size: about 580,000 compounds; about 6,100 (1.1%) were called active. This list was built around the results that the source calls inconclusive (neither active nor inactive); the mix of calls is not that of the screen. Calls follow the shape of the dose curve; as a rule, active = well fitted inhibition curve with a large enough effect; inconclusive = small, poorly fitted or top-dose-only effect, or another doubt; inactive = no such curve, though single readings can be large or run the other way. Potencies beside an inconclusive call are fits to weak or partial responses and may not hold up.
% is scaled to controls: 0 for no effect and ±100 for the full control effect; potency is read from the fitted curve at half-maximal effect.

Chains of the proteins cited; added tags and fusions are not shown. Lines headed by an entry give the natural chain unless they say otherwise; changes in a name come on top.
UniProt P18054: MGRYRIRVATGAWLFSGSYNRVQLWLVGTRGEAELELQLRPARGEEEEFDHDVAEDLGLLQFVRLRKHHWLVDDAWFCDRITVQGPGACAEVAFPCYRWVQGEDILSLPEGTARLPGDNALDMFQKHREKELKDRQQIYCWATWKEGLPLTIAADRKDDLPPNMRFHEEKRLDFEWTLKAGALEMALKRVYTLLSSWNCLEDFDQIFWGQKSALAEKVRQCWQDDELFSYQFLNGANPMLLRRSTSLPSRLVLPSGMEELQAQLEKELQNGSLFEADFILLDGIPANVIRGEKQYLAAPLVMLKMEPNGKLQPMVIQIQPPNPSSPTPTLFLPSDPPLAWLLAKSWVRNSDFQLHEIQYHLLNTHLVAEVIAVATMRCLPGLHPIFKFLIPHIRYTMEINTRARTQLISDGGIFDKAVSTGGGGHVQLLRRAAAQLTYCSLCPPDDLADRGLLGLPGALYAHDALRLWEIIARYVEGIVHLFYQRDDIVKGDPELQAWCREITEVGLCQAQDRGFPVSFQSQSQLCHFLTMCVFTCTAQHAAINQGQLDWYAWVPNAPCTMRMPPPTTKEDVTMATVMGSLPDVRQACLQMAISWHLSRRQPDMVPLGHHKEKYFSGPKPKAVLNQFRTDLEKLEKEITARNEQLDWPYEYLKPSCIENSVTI

What follows are compounds tested against Polyunsaturated fatty acid lipoxygenase ALOX12 (Homo sapiens) (UniProt P18054) (assay: Primary qHTS assay for inhibitors of human arachidonate 12S-lipoxygenase (ALOX12): Round 2). Conditions: purified 12hLO, xylenol orange hydroperoxide absorbance; activity change, negative = inhibition: at 108 µM (top of the series) unless noted.
Excerpt: Assay Provider: Theodore R. Holman Ph.D. University of California, Santa Cruz, California Human lipoxygenase 12hLO is a member of the closely related lipoxygenase family of enzymes which catalyze the site-specific oxidation of arachidonic acid to various hormone precursor molecules and as such is a candidate for drug development in a variety of disease areas, such as cancer and inflammation. Inhibition of 12hLO activity was screened by utilizing arachidonic acid as a substrate. The extent of hydroperoxide product formation was measured by a secondary chromogenic reaction in which xylenol orange (XO, Sigma-Aldrich, cat. number 39,818-7) reacts with the ferric ions produced from the reaction between the hydroperoxide and ferrous ions. The Fe (III)-XO complex is characterized with red-shifted absorbance at 560 nm. A purified preparation of human 12hLO was supplied by Dr. Holman laboratory, University of California, Santa Cruz.
PROTOCOL TABLE SEQUENCE No. (e.g., 1, 2, 3, etc.); […] (e.g., Cells, Incubation, Reagent, etc.); VALUE; DESCRIPTION 1; Enzyme; 3 uL; 150 nM 12hLO enzyme solution dispensed in 1536-well Greiner black, clear bottom plates. 2; Compound; 23 nL; compounds and controls were added. 3; Incubate; 15 min; room temperature. 4; Substrate; 1 uL; 40 uM arachidonic acid (final concentration). 5; Incubate; 30 min; room temperature. 6; Reagent; 4 uL; Fe-XO solution was added to each well. 7; Incubation; 30 min; room temperature 8; Detector; absorbance; Read 1 at 405 nm absorbance using ViewLux (Perkin-Elmer) CCD imager. 9; Detector; absorbance; Read 2 at 573 nm absorbance using ViewLux (Perkin-Elmer) CCD imager. NOTES (numbers refer to sequence above) 1; 150 nM 12hLO (final concentration) in buffer solution (25 mM Hepes, 0.01% Triton X-100, pH 7.0) was dispensed in columns 1, 2, 5-48. Column 1 is neutral (100% activity). Buffer only was dispensed in columns 3 and 4 as no enzyme negative controls. The plates were covered with metal lids with gas-exchange holes. 2; Compounds were pin transferred via a Kalypsys Pin Tool (Wako USA) in column 5-48. Control compound was transferred in column 2, titration of nordihydroguaiaretic acid (NDGA, Sigma-Aldrich, N5023) with top concentration of 20 mM in DMSO then 1:3 dilution in duplicate. Dilution factor of 23 nL into 4 uL final assay volume. 3; Covered assay plates were incubated for 15 min at room temperature. 4; Substrate was added to start the reaction; 40 uM arachidonic acid (Sigma-Aldrich, St. Louis, MO) was dispensed throughout the plate. 6; Chromogenic detection reagent solution (divalent iron/xylenol orange, Fe-XO) was added to each well: 200 uM xylenol orange, 300 uM ferrous ammonium sulfate prepared freshly in 50 mM sulfuric acid. 8, 9; Two absorbance readouts were obtained at 405 nm and at 573 nm using a ViewLux high-throughput CCD plate imager (Perkin-Elmer). The 573 to 405 (Read 2 / Read 1) absorbance ratio was used to compute reaction progress.
In the case of CCN(CC)C(=O)CSC1=C(C#N)C(c2ccco2)C(C(=O)Nc2ccc(F)cc2)=C(C)N1 (configuration not stated), the Potency is reported as inconclusive: 14.1 µM [inhibitor, single point].
With CCCN(C(=O)Cn1nc(Cc2ccncc2)c2ccccc2c1=O)c1ccc(OCC)cc1 the “activity change, negative = inhibition” value was inactive: -9.9%.
COc1ccccc1CCn1cnc(-c2ccccc2)c1CC(C)C was tested, and the Potency was inconclusive: 50.1 µM [inhibitor, partial curve, poor fit].
CCN(CC)S(=O)(=O)c1cccc(-c2nc3n(n2)Cc2ccccc2-3)c1 was tested, and the Potency was inconclusive: 44.7 µM [inhibitor, single point].
For C=CCOc1ccc(C2N3CC4(CC)CN2CC(CC)(C3)C4=O)cc1 (configuration not stated), the “activity change, negative = inhibition” value was inactive: 2.69%.
With CC(C)N1CCN(S(=O)(=O)c2ccccc2)CC1 the Potency was inconclusive: 3.98 µM [inhibitor, full curve, poor fit].
For Cc1ccccc1N=C1NC(=O)/C(=C/c2cccn2-c2cccc(C(=O)O)c2)S1, the Potency was inconclusive: 39.8 µM [inhibitor, partial curve].
Cc1ccc(C(=O)OCC(=O)N2CCC(C)CC2)cc1S(=O)(=O)N1CCCCC1 was tested, and the Potency was inconclusive: 44.7 µM [inhibitor, partial curve, poor fit].
For O=C(CC(=O)c1ccccc1)Nc1ccccc1C(F)(F)F, the “activity change, negative = inhibition” value was inactive: 0%.
With O=C(CSc1ccc2nnc(CCNS(=O)(=O)c3ccccc3)n2n1)Nc1nc2ccccc2s1 the Potency was inconclusive: 56.2 µM [inhibitor, partial curve, poor fit].
For CC(NC(=O)C1CCN(S(=O)(=O)c2ccc3nc4c(c(C(=O)O)c3c2)CCCC4)CC1)c1ccccc1 (configuration not stated), the Potency was inconclusive: 11.2 µM [inhibitor, full curve, poor fit].
With Cc1ccccc1N(CC(=O)NCCSC1CCCCC1)S(=O)(=O)c1ccccc1 the Potency was inconclusive: 79.4 µM [inhibitor, partial curve, poor fit].
In the case of Cc1cccc(NC(=S)NNc2cccc(Cl)c2)c1, the Potency is reported as inconclusive: 44.7 µM [inhibitor, partial curve, poor fit].
In the case of CC1(C(=O)Nc2ccc3c(c2)OCCO3)CCN1C(=O)Cc1cc(F)ccc1F (configuration not stated), the Potency is reported as inconclusive: 100 µM [inhibitor, single point].
With O=C(CSc1oc(-c2ccccc2)nc1S(=O)(=O)c1ccccc1)c1ccccc1 the Potency was inconclusive: 50.1 µM [inhibitor, partial curve, poor fit].
For Cc1[nH][nH]c(=O)c1C(c1ccc(-c2ccc(Cl)c(C(=O)O)c2)o1)c1c(C)[nH][nH]c1=O, the Potency was inconclusive: 35.5 µM [inhibitor, partial curve, poor fit].
In the case of S=c1[nH]c2ccccc2c2ccccc12, the Potency is reported as inconclusive: 44.7 µM [inhibitor, partial curve, poor fit].
In the case of COc1ccc(-c2nc3cnc(N4CCN(C)CC4)nc3n(C)c2=O)cc1, the Potency is reported as inconclusive: 28.2 µM [inhibitor, full curve, poor fit].
With CC(=O)c1cccc(NC(=O)C(C)OC(=O)c2ccc(Br)o2)c1 (configuration not stated) the Potency was inconclusive: 0.199 µM [inhibitor, full curve, poor fit].
For CC(C)(C)c1ccc(NC(=O)Nc2ccc(F)cc2)cc1, the Potency was inconclusive: 126 µM [inhibitor, partial curve, poor fit].
With CC(C(=O)N(C)C1CCS(=O)(=O)C1)N1C(=O)/C(=C/c2ccco2)SC1=S (configuration not stated) the Potency was inconclusive: 44.7 µM [inhibitor, partial curve, poor fit].
For CCCCNCC#CCOc1cc(C)ccc1C(C)C, the Potency was inconclusive: 4.47 µM [inhibitor, full curve].
With Cc1ccc(N2C(=S)NC3c4cc(Cl)ccc4OC2(C)C3C(=O)N(C)C)cc1 (configuration not stated) the Potency was inconclusive: 44.7 µM [inhibitor, partial curve, poor fit].
For Oc1ccc(-c2nc(=S)[nH][nH]2)cc1, the Potency was inconclusive: 35.5 µM [inhibitor, partial curve, poor fit].
With CC(C)C(NC(=O)COc1ccccc1)C(=O)O (configuration not stated) the “activity change, negative = inhibition” value was inactive: -21%.
With Cc1n[nH]c(=S)n(/N=C/c2ccccn2)c1=O the Potency was inconclusive: 0.126 µM [inhibitor, full curve, poor fit].
For CCc1ccc(-n2c(SCc3cccc(F)c3)nc3[nH]ncc3c2=O)cc1, the Potency was inconclusive: 50.1 µM [inhibitor, partial curve, poor fit].
In the case of Cc1ccc(C2C(C#N)=C(N)OC3=C2C(=O)CC(C)(C)C3)s1 (configuration not stated), the Potency is reported as inconclusive: 126 µM [inhibitor, single point].
With O=C(CSc1nc2ccccc2[nH]1)N=Nc1c(O)[nH]c2ccccc12 the “activity change, negative = inhibition” value was inactive: 8.88%.
With CCc1cccc(NC(=O)c2cc(-c3ccc[nH]3)n[nH]2)c1 the Potency was active: 22.4 µM.
CCN(CC)CCCn1c(=S)[nH]c2cc(C(=O)OC)ccc2c1=O was tested, and the Potency was inconclusive: 89.1 µM [inhibitor, partial curve, poor fit].
For CC(C)CNC(=S)Nc1cccc(Cl)c1, the Potency was inconclusive: 44.7 µM [inhibitor, partial curve, poor fit].
